Laboratory results taken from publication PMC5297127.
Results are given in words; binding and its absence hold for the method and conditions named. In cells and extracts the contact can be indirect.

Chains of the proteins cited; added tags and fusions are not shown.
UniProt Q92905: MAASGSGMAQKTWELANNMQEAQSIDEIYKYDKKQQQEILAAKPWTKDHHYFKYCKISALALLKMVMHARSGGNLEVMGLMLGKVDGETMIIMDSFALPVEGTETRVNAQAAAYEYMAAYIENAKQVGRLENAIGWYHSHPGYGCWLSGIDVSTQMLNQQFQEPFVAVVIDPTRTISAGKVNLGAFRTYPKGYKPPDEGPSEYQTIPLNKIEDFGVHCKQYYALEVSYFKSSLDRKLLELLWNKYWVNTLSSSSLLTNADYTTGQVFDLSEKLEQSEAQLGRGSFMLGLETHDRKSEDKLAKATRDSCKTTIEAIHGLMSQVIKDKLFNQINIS
UniProt Q04206: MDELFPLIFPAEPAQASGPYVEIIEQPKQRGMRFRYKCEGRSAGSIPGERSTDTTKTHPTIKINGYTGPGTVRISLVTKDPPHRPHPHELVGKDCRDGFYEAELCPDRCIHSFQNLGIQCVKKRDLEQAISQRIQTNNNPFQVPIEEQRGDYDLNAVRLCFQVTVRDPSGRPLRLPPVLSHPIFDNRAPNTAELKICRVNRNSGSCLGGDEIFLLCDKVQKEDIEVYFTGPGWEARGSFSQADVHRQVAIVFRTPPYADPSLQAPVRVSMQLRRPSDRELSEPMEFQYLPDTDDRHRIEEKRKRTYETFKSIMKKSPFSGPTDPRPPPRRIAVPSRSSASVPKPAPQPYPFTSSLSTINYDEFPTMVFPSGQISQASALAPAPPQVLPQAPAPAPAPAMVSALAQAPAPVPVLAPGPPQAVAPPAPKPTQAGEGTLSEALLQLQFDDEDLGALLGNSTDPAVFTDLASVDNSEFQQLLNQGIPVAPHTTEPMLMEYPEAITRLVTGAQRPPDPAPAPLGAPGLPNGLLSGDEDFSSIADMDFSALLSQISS
UniProt P25963: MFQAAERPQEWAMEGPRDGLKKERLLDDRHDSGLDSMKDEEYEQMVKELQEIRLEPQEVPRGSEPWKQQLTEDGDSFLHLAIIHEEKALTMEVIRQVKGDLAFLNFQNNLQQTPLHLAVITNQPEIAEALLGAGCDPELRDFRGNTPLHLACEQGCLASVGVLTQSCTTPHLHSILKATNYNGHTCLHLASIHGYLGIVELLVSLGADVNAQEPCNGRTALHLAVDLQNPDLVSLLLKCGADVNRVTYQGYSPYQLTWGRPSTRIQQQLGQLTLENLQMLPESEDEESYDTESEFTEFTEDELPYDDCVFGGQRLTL

Key:
[1] = target: JAB1 (Jun activation domain binding protein-1) (human (endogenous in U937)) (UniProt Q92905); test: co-IP; Pierce Co-IP kit; endogenous JAB1 precipitated with anti-JAB1 [2A10.8] antibody-coupled resin from 1 mg pre-cleared lysate of PMA-differentiated U937 macrophages, untreated or oxLDL-treated (4 h); western blot; eluate of Control Agarose Resin as negative control
[2] = target: JAB1 (Jun activation domain binding protein-1) (human (endogenous in U937)), Q92905; test: as above; settings: remark: other sources report otherwise

Molecule | binding [1] | binding [2]
NF-κB p65 (from UniProt Q04206 1-551) | no binding | –
Iκ-Bα (nuclear factor of kappa light polypeptide gene enhancer in B-cells inhibitor, alpha) (from UniProt P25963 1-317) | no binding | –
IkB kinase ß (IKKß), O14920 1-756 (protein) MSWSPSLTTQTCGAWEMKERLGTGGFGNVIRWHNQETGEQIAIKQCRQELSPRNRERWCLEIQIMRRLTHPNVVAARDVPEGMQNLAPNDLPLLAMEYCQGGDLRKYLNQFENCCGLREGAILTLLSDIASALRYLHENRIIHRDLKPENIVLQQGEQRLIHKIIDLGYAKELDQGSLCTSFVGTLQYLAPELLEQQKYTVTVDYWSFGTLAFECITGFRPFLPNWQPVQWHSKVRQKSEVDIVVSEDLNGTVKFSSSLPYPNNLNSVLAERLEKWLQLMLMWHPRQRGTDPTYGPNGCFKALDDILNLKLVHILNMVTGTIHTYPVTEDESLQSLKARIQQDTGIPEEDQELLQEAGLALIPDKPATQCISDGKLNEGHTLDMDLVFLFDNSKITYETQISPRPQPESVSCILQEPKRNLAFFQLRKVWGQVWHSIQTLKEDCNRLQQGQRAAMMNLLRNNSCLSKMKNSMASMSQQLKAKLDFFKTSIQIDLEKYSEQTEFGITSDKLLLAWREMEQAVELCGRENEVKLLVERMMALQTDIVDLQRSPMGRKQGGTLDDLEEQARELYRRLREKPRDQRTEGDSQEMVRLLLQAIQSFEKKVRVIYTQLSKTVVCKQKALELLPKVEEVVSLMNEDEKTVVRLQEKRQKELWNLLKIACSKVRGPVSGSPDSMNASRLSQPGQLMSQPSTASNSLPEPAKKSEELVAEAHNLCTLLENAIQDTVREQDQSFTALDWSWLQTEEEEHSCLEQAS | – | no binding
